Test results: publication PMC8786290
These are yes or no findings as the source states them, for the method shown. Some results given as binding are weak or reduced against the parent protein; the word gives no strength.

Target: T1, Hsp26 (S. cerevisiae (endogenous in BY4741)), P15992
T1 chain: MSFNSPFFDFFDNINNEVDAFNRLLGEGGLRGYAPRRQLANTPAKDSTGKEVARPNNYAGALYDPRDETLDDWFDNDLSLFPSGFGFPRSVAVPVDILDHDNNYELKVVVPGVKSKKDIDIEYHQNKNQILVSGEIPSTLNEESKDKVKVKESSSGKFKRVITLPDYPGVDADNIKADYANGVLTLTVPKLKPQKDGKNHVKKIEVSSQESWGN
Assay: SEC; cleared BY4741 lysate in non-denaturing lysis buffer with 4 mM MgATP, diluted to 1 mg/ml, HiLoad 16/60 Superdex 200; fractions analysed by SDS-PAGE (Coomassie) and Western blot with Hsp26 antiserum; cells grown in 0.05% glucose
Conditions: remark: other sources report otherwise

binding: binds
B1: Hsp26, P15992 1-214 (protein)
chain: MSFNSPFFDFFDNINNEVDAFNRLLGEGGLRGYAPRRQLANTPAKDSTGKEVARPNNYAGALYDPRDETLDDWFDNDLSLFPSGFGFPRSVAVPVDILDHDNNYELKVVVPGVKSKKDIDIEYHQNKNQILVSGEIPSTLNEESKDKVKVKESSSGKFKRVITLPDYPGVDADNIKADYANGVLTLTVPKLKPQKDGKNHVKKIEVSSQESWGN
